Laboratory results taken from USRE33699E, “Growth hormone-releasing factor analogs” (International Minerals & Chemical Corp., priority 1990, dated 1991).
Not every detail of the peptide structures is certain; ends, links or a residue may be inferred. Square brackets hold non-standard residues; d marks the D form. Peptide text beside a SMILES is read from it. Nle = CCCC[C@H](N)C(=O)O

Test system: rat pituitary cells
Experiment: Bioassay of hGRF analogs: stimulation of growth hormone release in rat pituitary cells in tissue culture
Assay type: cell-based
From the text: The assay for biological activity, which is based on the ability to stimulate release of growth hormone in rat pituitary cells in tissue culture, has been described in detail (Culler, M. D.; Kenjo, T.: Obara, N.; Arimuar, A., Stimulation of cAMP. Accumulation by Human Pancreatic GH-Releasing Factor(1-44). Am. J. Physiol. 1984, 247 (Endocrinol.Metab. 10). E609-E615.
ALLFIT, the 4-parameter logistic curve fitting program available from the Biomedical Computer Technology Information Center, Vanderbilt Medical Center, Nashville Tenn., was used to determine ED50 and maximal stimulated values from the data. In several instances, the amount of GH released reached a maximum value and decreased with further increasing doses of the hGRF analogs. To simplify the data analysis, these values were not used in the calculations. The calculated maximal responses, the doses of the analog required to release the amount of GH released at the ED50 of the standard (hGRF) and the potencies of the analogs relative to hGRF, are given in Table 2. Generally all novel analogs were fully active and were able to stimulate the release of growth hormone with maximal values of GH release being within 80% of the value for natural hGRF.

In the case of CCCC[C@H](NC(=O)[C@@H](NC(=O)[C@H](CC(=O)O)NC(=O)[C@H](CCC(N)=O)NC(=O)[C@H](CC(C)C)NC(=O)[C@H](CC(C)C)NC(=O)[C@H](CCCCN)NC(=O)[C@H](CCCNC(=N)N)NC(=O)[C@H](C)NC(=O)[C@H](CO)NC(=O)[C@H](CC(C)C)NC(=O)[C@H](CCC(N)=O)NC(=O)CNC(=O)[C@H](CC(C)C)NC(=O)[C@@H](NC(=O)[C@H](CCCCN)NC(=O)[C@H](CCCNC(=N)N)NC(=O)[C@H](Cc1ccc(O)cc1)NC(=O)[C@H](CO)NC(=O)[C@H](CC(N)=O)NC(=O)[C@@H](NC(=O)[C@H](Cc1ccccc1)NC(=O)[C@@H](NC(=O)[C@H](C)NC(=O)[C@H](CC(=O)O)NC(=O)[C@H](C)NC(=O)[C@@H](N)Cc1ccc(O)cc1)[C@@H](C)CC)[C@@H](C)O)C(C)C)[C@@H](C)CC)C(=O)N[C@@H](CO)C(=O)N[C@@H](CCCNC(=N)N)C(=O)N[C@@H](CCC(N)=O)C(=O)N[C@@H](CCC(N)=O)C(N)=O [[Nle^27]-hGRF(1-31)NH2, reference compound] (H-YADAIFTNSYRKVLGQLSARKLLQDI[Nle]SRQQ-NH2), the “Dose Needed to Release 2.01 μg/ml of GH” value (2.01 μg/ml = GH released at the ED50 of hGRF, from ALLFIT curves) is reported as 0.11 nM, the Potency ((ED50 of hGRF)/(Dose required to give same response as ED50 of hGRF)) is reported as 291% and the “Relative Maximum Activity (% of hGRF)” value (from ALLFIT curves) is reported as 95 % of hGRF.
